Laboratory results from publication doi:10.1101/2024.06.13.598886.

Protein sequences, listed by entry. Tags and fused reporters are not part of them. Residues count along the entry.
UniProt P19525: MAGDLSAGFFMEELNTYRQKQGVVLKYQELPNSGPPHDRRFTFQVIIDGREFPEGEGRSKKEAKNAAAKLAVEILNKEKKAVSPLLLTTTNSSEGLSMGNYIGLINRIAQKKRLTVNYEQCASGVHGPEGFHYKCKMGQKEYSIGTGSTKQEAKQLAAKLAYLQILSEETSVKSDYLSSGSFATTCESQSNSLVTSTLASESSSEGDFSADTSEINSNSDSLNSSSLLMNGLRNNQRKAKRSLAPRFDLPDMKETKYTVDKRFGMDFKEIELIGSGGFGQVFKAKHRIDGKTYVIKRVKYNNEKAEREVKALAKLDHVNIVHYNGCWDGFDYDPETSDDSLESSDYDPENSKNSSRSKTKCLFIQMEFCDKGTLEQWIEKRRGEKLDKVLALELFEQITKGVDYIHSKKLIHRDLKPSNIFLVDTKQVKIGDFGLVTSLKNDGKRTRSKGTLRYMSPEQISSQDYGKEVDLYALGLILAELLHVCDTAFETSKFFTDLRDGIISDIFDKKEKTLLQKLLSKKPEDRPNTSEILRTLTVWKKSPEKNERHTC
UniProt O43795: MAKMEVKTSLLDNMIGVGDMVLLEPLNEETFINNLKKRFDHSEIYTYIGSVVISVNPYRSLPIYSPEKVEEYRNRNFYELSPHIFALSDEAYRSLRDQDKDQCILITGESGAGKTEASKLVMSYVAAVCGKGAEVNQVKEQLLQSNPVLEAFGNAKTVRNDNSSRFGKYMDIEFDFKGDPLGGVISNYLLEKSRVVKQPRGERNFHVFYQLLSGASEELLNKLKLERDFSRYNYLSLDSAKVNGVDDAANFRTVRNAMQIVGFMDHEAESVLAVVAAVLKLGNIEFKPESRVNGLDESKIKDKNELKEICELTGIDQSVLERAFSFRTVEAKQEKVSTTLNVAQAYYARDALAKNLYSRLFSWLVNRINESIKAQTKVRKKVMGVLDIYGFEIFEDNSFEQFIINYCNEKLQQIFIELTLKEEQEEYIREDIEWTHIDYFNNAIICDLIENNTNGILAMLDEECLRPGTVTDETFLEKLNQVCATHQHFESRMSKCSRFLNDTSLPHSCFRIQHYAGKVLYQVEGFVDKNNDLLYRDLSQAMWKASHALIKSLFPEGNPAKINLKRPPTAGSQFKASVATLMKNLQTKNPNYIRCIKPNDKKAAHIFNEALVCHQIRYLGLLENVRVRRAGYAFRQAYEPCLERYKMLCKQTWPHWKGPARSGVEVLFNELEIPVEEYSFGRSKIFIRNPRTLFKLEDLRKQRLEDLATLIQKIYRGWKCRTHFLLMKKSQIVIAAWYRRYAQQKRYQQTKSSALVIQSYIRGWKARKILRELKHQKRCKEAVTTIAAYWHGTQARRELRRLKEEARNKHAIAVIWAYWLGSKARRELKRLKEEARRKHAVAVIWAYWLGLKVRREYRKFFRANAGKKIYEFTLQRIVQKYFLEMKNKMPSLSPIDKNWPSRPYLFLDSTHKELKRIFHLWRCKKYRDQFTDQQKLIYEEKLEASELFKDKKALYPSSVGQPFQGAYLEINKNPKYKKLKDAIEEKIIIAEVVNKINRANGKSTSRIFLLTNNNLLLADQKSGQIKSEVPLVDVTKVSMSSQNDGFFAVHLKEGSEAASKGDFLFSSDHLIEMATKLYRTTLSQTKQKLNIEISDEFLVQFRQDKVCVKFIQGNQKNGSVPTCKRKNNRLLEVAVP
UniProt P07996, residues 19-1170: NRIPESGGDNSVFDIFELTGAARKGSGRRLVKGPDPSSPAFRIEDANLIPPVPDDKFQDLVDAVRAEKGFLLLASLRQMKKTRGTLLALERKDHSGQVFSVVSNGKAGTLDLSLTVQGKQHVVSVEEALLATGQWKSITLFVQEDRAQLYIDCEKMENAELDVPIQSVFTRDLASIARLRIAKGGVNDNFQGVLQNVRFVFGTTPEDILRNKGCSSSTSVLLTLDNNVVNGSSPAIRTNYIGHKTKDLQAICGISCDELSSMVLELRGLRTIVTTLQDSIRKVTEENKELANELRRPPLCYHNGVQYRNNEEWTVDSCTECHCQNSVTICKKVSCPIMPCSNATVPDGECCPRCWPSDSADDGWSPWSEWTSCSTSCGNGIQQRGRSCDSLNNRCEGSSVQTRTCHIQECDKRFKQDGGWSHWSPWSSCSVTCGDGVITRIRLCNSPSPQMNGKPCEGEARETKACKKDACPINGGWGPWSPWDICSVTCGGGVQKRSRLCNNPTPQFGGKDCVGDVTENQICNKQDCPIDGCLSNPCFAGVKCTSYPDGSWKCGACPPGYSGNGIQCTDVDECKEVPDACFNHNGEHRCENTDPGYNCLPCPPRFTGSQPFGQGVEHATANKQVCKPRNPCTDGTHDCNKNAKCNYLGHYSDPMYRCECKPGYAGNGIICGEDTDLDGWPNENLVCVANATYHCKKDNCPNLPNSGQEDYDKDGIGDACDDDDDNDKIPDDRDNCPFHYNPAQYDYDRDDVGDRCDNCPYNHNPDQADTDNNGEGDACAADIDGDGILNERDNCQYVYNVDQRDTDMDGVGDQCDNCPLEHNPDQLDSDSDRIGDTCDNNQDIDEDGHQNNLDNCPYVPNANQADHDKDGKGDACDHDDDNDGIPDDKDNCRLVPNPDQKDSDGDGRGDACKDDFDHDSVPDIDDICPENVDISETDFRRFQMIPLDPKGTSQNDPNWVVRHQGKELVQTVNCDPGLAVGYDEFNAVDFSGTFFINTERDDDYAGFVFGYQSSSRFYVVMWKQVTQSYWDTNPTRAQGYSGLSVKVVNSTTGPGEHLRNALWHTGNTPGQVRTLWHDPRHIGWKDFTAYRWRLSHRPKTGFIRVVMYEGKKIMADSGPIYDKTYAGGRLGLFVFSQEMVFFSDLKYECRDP

B1: CDK5 Regulatory Subunit Associated Protein 3 (protein, UniProt Q96JB5 1-506)
chain: MEDHQHVPIDIQTSKLLDWLVDRRHCSLKWQSLVLTIREKINAAIQDMPESEEIAQLLSGSYIHYFHCLRILDLLKGTEASTKNIFGRYSSQRMKDWQEIIALYEKDNTYLVELSSLLVRNVNYEIPSLKKQIAKCQQLQQEYSRKEEECQAGAAEMREQFYHSCKQYGITGENVRGELLALVKDLPSQLAEIGAAAQQSLGEAIDVYQASVGFVCESPTEQVLPMLRFVQKRGNSTVYEWRTGTEPSVVERPHLEELPEQVAEDAIDWGDFGVEAVSEGTDSGISAEAAGIDWGIFPESDSKDPGGDGIDWGDDAVALQITVLEAGTQAPEGVARGPDALTLLEYTETRNQFLDELMELEIFLAQRAVELSEEADVLSVSQFQLAPAILQGQTKEKMVTMVSVLEDLIGKLTSLQLQHLFMILASPRYVDRVTEFLQQKLKQSQLLALKKELMVQKQQEALEEQAALEPKLDLLLEKTKELQKLIEADISKRYSGRPVNLMGTSL
B2: BRCA1 Associated Protein (protein, UniProt Q7Z569 1-592)
chain: MSVSLVVIRLELAEHSPVPAGFGFSAAAGEMSDEEIKKTTLASAVACLEGKSPGEKVAIIHQHLGRREMTDVIIETMKSNPDELKTTVEERKSSEASPTAQRSKDHSKECINAAPDSPSKQLPDQISFFSGNPSVEIVHGIMHLYKTNKMTSLKEDVRRSAMLCILTVPAAMTSHDLMKFVAPFNEVIEQMKIIRDSTPNQYMVLIKFRAQADADSFYMTCNGRQFNSIEDDVCQLVYVERAEVLKSEDGASLPVMDLTELPKCTVCLERMDESVNGILTTLCNHSFHSQCLQRWDDTTCPVCRYCQTPEPVEENKCFECGVQENLWICLICGHIGCGRYVSRHAYKHFEETQHTYAMQLTNHRVWDYAGDNYVHRLVASKTDGKIVQYECEGDTCQEEKIDALQLEYSYLLTSQLESQRIYWENKIVRIEKDTAEEINNMKTKFKETIEKCDNLEHKLNDLLKEKQSVERKCTQLNTKVAKLTNELKEEQEMNKCLRANQVLLQNKLKEEERVLKETCDQKDLQITEIQEQLRDVMFYLETQQKINHLPAETRQEIQEGQINIAMASASSPASSGGSGKLPSRKGRSKRGK

What follows are molecules tested against T1, PTPRH WT-BioID2-HA (human) (UniProt Q9HD43) (assay: proximity labelling).
T1 sequence: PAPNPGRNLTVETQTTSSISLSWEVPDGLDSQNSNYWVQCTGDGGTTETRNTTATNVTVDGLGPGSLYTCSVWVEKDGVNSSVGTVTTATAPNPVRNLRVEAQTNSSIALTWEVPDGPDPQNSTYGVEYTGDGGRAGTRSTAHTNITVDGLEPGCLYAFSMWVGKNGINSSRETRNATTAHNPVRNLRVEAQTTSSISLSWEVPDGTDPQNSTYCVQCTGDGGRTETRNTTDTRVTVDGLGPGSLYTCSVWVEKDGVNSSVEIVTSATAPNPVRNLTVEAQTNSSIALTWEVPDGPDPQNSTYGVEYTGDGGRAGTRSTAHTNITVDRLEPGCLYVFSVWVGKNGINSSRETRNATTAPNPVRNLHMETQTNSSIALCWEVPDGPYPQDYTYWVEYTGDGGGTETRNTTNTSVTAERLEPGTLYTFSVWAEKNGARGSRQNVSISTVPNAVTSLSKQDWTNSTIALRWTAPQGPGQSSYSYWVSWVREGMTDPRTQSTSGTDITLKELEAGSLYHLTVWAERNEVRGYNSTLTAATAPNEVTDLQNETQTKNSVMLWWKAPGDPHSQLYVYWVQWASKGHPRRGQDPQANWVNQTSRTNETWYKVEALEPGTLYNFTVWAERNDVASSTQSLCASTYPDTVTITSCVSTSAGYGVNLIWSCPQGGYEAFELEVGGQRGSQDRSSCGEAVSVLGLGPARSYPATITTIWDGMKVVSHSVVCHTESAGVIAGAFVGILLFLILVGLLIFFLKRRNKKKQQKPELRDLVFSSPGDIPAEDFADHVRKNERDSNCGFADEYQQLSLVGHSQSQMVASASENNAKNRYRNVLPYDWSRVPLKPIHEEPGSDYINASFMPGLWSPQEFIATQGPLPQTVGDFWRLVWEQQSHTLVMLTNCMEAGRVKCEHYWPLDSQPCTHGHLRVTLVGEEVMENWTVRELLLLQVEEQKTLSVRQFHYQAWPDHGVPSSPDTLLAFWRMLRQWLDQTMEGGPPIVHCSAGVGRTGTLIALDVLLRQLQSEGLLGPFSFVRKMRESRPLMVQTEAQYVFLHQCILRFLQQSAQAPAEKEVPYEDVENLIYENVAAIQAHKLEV

Molecule | binding
Eukaryotic Translation Initiation Factor 2 Alpha Kinase 2 (from UniProt P19525 1-551) (enzyme) | binds
Myosin IB (from UniProt O43795 1-1136) | binds
thrombospondin 1 (from UniProt P07996 19-1170) | binds
B1 | binds
B2 | binds

Results are given in words; binding and its absence hold for the method and conditions named. In cells and extracts the contact can be indirect. These calls come from enrichment with a bait or labelling near it, and not all partners need be listed. Where a sequence is shown, tags or fusion partners need not be part of it.
